Numbering of substitutions follows the chain as printed. Results are given in words; binding and its absence hold for the method and conditions named. A result given as binding can be weak or reduced; the word gives no strength. For some of these results: Where a sequence is shown, tags or fusion partners need not be part of it.
What was measured:
Test in all cases: pull-down; MBP-fused aldolase protein held on amylose agarose; soluble Mud^CC prey added at varying concentrations for 2 h at 4°C in 20 mM Tris pH 8, 100 mM NaCl, 1 mM DTT, 0.2% Triton-X100; four washes; Coomassie-stained SDS-PAGE, band intensities fitted to a one-site binding isotherm; both purified
[1] = target: T1, Hts310_HTaa (H164A/T167A) (Drosophila melanogaster) (UniProt Q02645)
T1 sequence: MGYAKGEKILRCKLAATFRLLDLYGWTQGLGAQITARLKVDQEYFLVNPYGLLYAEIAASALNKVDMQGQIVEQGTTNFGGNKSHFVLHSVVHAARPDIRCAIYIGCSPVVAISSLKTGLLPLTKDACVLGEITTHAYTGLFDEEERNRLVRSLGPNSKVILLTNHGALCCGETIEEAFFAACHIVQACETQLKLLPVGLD

[2] = target: T2, MBP:Hts (110-310), CThelix truncation of the Hts aldolase domain (Drosophila melanogaster) (UniProt Q02645)
T2 sequence: T1 sequence with A55H, A58T

[3] = target: T3, MBP:Hts (110-401), full-length Hts aldolase domain (Drosophila melanogaster) (UniProt Q02645)
T3 sequence: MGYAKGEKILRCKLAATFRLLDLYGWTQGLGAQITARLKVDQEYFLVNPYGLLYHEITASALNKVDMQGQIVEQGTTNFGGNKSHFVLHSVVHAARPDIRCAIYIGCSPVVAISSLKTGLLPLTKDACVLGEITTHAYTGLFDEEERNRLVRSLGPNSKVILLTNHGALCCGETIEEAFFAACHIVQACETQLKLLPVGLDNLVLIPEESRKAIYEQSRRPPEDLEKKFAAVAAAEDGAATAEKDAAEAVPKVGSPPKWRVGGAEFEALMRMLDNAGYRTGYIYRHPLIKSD

[4] = target: T4, MBP:Hts (110-401)-ΔCTloop (Drosophila melanogaster) (UniProt Q02645)
T4 sequence: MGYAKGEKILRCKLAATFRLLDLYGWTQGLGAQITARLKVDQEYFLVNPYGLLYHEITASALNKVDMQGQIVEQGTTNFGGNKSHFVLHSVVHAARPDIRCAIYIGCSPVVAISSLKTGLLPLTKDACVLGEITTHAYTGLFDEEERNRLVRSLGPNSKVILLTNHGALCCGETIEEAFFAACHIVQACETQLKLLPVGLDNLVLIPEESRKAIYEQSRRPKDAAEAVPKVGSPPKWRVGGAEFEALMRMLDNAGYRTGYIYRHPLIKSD

Measured: binding

Mushroom body defect coiled-coil domain (Mud^CC) (Drosophila melanogaster) (domain or fragment)
binds: all assays above

Source: PMC12599920
